Our source for the growth estimate values is the supplement of paper PMC5949888.

Most values lie at the floor of the assay. Slopes are relative: functional sequences can read slightly below zero.

The data set concerns Saccharomyces cerevisiae PS128 hsf1 delta, HSF1(1-493) fusion. Nature of the data set: growth estimate (transactivation domain function in HSF1 fusion, heat-shock survival) (a.u. (slope of normalised read count over time)); higher = stronger growth at 37°C, i.e. more transactivation activity. The settings on record: library: random library.
With VSHAARYSRESRRTSAHGHR, the growth estimate was below -0.25. The value for RQHNKDPWGLPHILRSHQET was below -0.25; that for GEVSQGVLAFWLFKACIRRG was below -0.25.

For REQVHGVRDKLPESTSPPKR, the growth estimate is below -0.25. On to LPVPSRRRVF, for which the growth estimate was below -0.25. The value for SASGLRCSSVRINTKSRGPS was below -0.25; that for PIPHGQKSVRKSVT was below -0.25; that for SAAN was below -0.25. PIKYPFWPVT: the growth estimate was below -0.25. The value for VRLHRFDNS was below -0.25; that for YEG was below -0.25; that for RHPFSQSQ was below -0.25. For the substance ANYFARYFFSTGGS, the growth estimate was below -0.25. LKEATCTDGQVHTIVTMEPV: the growth estimate is below -0.25. For RKYPNMLMQLEDLRFVKTSG, the growth estimate is below -0.25. The value for AVGRGTKGA was -0.243; that for GPLILP was below -0.25; that for STWVKSHCLFEETVPG was below -0.25. With PFAHTDCNLQVARRLWSVTP the figure was below -0.25; with VPS, below -0.25.

As to PRECHSCQLAARDTRHRS, the growth estimate was below -0.25. The value for VVQAFYPTFKTRSLGKSQSA was below -0.25; that for KNIRLFERL was below -0.25.

As to YVGRFVQPRHSMPSNVLNLH, the growth estimate was below -0.25. For ICSSSIPVPVWLRVIAALQS, the growth estimate is below -0.25. The value for RKPSR was below -0.25; that for LGVVSVNLLSRPLSAPAWQN was below -0.25.

With GEKFTELYLSGIII, the growth estimate was below -0.25. In the case of RVLVQRGVKLNFIVFGMHGT, the growth estimate was below -0.25. The value for RRPVPPSAQRNSN was below -0.25. Turning to NLGQGDVQVGVGIAARLNAP, the growth estimate was below -0.25. With GSGVTSELRHAMADASLGE the figure was below -0.25. With GSR the figure was below -0.25. In the case of HNGEAFSHRVVFHLVRQQRW, the growth estimate is below -0.25. Regarding AHKLEAAGILPRFLSTLG, the growth estimate was below -0.25.

For NLILVQPPRARAR, the growth estimate was below -0.25. As for LIPDNGVGVGLGRLEGG, the growth estimate is below -0.25. Turning to GVFHLSTKGLLFKDKSLALR, the growth estimate was -0.231.

On to VLTCLRGRRMIVGVCN, for which the growth estimate was below -0.25. With DTFLHAGKHGELQAV the figure was below -0.25; with GLPTIGFYG, below -0.25; with ESSNVARSSTAKQGNRWPHP, below -0.25. The value for QHDGSNRTGNDGITSARL was below -0.25; that for NLFTSASPHEYGVR was below -0.25. As for SRTSHGPGTVSY, the growth estimate is below -0.25.

With QPFARVCCTASVCMTPPPRS, the growth estimate is below -0.25.

Turning to SSRFTMWLARGWV, the growth estimate was below -0.25. VKLIRQIMAQPCEPRTGIRS: the growth estimate is below -0.25. Turning to FPPGEPRPRFLRFESLHDMD, the growth estimate is -0.246. Consider WSRPTLGALLLMSINLVNSL, for which the growth estimate was below -0.25. With DVLHK the figure was below -0.25; with RHAS, below -0.25; with LPERRGIVCV, below -0.25.

For PNVRVDAPTLYP, the growth estimate is below -0.25. As for NRSFVYRGLF, the growth estimate was below -0.25. The value for IHQIQ was below -0.25. The value for GFCEPKRS was below -0.25; that for STQSCDYVLGHSAVWNSFDY was 2.42; that for LCLIGFVLDCL was below -0.25. IAAP: the growth estimate was below -0.25. The value for LLPRS was below -0.25; that for EKSRHQYEGLLSTEWRFSSL was 0.251. For HVKGGPRSPILPEPIRARVT, the growth estimate was below -0.25. The value for LASRAGDPEVKKVPSPNISA was below -0.25. Regarding SPRWVGYMLNTV, the growth estimate is below -0.25. The value for ARF was below -0.25; that for MEVLDIKLCRGIIGTQRSTR was -0.246. The value for GNIPDLRGSIFVPHDRSEHA was below -0.25.

Take CKH: the growth estimate is below -0.25. With GWSCT the figure was below -0.25; with YGSVTIVVPHDSGYTPCSNG, below -0.25. With WYK, the growth estimate is below -0.25. GKHVGDNTPFVIMWHGGVCQ: the growth estimate is below -0.25.

Take TDLPS: the growth estimate is below -0.25. As for HDITDA, the growth estimate was below -0.25. The value for IGRADLGGRIDQKDVKRFLR was below -0.25. Take SGNGSRSERALWMFQ: the growth estimate was below -0.25. The value for GPFG was below -0.25; that for KAQAEKHGRLEEN was below -0.25. As to TLTRVKSRRLEVTPHTN, the growth estimate is below -0.25.
